These are yes or no findings as the source states them, for the method shown. Binding seen in cells or lysates may run through a third protein. Some binding calls cover weakened binding; strength is not graded here. For part of these data: Sequences can lack the tags named with a protein.
B1: Histone deacetylase 11 (HDAC11), transiently expressed together with TPI1 (Fig. S3B) (protein, UniProt Q96DB2 1-347)
chain: MLHTTQLYQHVPETRWPIVYSPRYNITFMGLEKLHPFDAGKWGKVINFLKEEKLLSDSMLVEAREASEEDLLVVHTRRYLNELKWSFAVATITEIPPVIFLPNFLVQRKVLRPLRTQTGGTIMAGKLAVERGWAINVGGGFHHCSSDRGGGFCAYADITLAIKFLFERVEGISRATIIDLDAHQGNGHERDFMDDKRVYIMDVYNRHIYPGDRFAKQAIRRKVELEWGTEDDEYLDKVERNIKKSLQEHLPDVVVYNAGTDILEGDRLGGLSISPAGIVKRDELVFRMVRGRRVPILMVTSGGYQKRTARIIADSILNLFGLGLIGPESPSVSAQNSDTPLLPPAVP
B2: Histone deacetylase 11 (HDAC11), endogenous (protein, UniProt Q96DB2 1-347)
chain: B1 chain

Sequences of proteins named here, by UniProt entry; tags and fusion partners are left off. A change or cut given only in a name is not applied to a line headed by its entry.
UniProt P60174: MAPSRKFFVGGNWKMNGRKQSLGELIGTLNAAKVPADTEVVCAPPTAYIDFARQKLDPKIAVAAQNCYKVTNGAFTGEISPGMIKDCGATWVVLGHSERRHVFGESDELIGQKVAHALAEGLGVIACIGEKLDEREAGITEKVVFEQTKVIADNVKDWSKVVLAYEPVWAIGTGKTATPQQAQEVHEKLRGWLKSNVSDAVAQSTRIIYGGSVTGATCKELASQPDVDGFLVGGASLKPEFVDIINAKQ
UniProt Q09472: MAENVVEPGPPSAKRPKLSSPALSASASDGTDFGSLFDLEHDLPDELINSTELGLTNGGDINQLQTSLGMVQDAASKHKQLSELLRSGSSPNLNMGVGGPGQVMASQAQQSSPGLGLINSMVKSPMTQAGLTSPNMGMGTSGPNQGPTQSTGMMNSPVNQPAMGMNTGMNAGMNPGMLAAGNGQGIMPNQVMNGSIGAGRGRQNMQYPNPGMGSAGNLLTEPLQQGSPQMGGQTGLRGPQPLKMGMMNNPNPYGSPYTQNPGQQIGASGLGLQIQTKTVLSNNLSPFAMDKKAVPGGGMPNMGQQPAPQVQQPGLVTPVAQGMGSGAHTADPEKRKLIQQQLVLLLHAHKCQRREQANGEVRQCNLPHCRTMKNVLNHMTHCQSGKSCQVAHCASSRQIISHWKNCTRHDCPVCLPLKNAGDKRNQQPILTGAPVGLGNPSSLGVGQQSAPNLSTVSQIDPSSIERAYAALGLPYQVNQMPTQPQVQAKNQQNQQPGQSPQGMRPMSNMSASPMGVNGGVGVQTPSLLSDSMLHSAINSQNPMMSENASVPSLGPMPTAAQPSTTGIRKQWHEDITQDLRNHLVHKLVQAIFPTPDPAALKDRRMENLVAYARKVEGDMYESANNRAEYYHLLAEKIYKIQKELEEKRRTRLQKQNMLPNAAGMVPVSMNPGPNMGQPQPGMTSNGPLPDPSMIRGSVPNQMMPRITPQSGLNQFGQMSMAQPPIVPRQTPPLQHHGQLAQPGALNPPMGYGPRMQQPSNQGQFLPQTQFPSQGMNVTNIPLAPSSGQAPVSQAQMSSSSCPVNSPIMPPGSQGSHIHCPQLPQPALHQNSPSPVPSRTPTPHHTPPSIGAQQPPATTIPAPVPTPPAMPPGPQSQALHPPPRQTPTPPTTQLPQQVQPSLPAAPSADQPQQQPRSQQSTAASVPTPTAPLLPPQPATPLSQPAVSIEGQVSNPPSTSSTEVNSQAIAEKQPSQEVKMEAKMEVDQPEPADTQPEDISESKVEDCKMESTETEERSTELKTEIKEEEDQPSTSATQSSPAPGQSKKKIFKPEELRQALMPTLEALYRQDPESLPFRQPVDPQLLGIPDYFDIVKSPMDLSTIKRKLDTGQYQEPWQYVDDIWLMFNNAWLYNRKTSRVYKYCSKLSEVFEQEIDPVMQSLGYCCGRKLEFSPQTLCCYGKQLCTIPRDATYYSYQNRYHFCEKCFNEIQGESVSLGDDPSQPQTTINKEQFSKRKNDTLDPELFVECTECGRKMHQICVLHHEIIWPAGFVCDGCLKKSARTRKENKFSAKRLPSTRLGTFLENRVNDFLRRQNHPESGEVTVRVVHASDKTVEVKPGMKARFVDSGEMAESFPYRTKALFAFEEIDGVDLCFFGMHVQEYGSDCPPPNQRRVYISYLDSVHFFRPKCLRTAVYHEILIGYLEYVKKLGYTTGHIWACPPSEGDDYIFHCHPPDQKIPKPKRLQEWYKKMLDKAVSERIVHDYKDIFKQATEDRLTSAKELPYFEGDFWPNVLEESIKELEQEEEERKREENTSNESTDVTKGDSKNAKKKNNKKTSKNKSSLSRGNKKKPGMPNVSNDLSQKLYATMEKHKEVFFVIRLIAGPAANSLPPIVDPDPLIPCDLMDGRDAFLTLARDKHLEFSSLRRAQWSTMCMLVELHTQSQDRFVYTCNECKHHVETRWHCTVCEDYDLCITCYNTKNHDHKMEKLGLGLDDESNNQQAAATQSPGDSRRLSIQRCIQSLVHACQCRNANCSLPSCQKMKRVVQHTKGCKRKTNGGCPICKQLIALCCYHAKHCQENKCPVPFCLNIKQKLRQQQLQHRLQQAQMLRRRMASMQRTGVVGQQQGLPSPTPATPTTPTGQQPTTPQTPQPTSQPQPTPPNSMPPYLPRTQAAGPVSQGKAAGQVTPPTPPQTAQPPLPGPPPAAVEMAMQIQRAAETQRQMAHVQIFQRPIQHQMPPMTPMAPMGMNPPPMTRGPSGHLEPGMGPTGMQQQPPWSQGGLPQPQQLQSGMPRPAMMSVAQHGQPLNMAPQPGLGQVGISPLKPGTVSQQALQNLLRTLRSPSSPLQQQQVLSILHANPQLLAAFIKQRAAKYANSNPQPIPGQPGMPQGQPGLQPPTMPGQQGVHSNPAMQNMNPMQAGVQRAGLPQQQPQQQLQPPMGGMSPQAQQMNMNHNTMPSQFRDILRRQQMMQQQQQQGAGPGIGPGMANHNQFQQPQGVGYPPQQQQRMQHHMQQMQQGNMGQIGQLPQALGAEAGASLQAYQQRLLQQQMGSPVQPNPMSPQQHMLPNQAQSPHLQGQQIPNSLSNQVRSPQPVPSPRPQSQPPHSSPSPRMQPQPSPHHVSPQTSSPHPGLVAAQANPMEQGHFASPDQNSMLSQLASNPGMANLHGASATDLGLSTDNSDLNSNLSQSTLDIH

Tests used:
[1] = molecular target: Triosephosphate isomerase 1 (TPI1), endogenous (human (endogenous in MRC-5, WI-38 and 293T)) (UniProt P60174); experiment: co-IP; anti-TPI1 immunoprecipitates from 293T whole-cell lysates; cells with or without 5 ng/ml TGF-beta1 for 4 h before harvest; immunoblot for HDAC11 and p300
[2] = molecular target: Triosephosphate isomerase 1 (TPI1), endogenous (human (endogenous in MRC-5, WI-38 and 293T)) (UniProt P60174); experiment: co-IP; anti-TPI1 immunoprecipitates from MRC-5 and WI-38 whole-cell lysates, endogenous proteins; cells pretreated with TSA (2 uM) for 1 h; immunoblot for HDAC11 and p300
[3] = molecular target: TPI1 in 293T cells transfected with acetyltransferases (Fig. S3A) (UniProt P60174); experiment: co-IP; 293T cells individually transfected with 5 acetyltransferases (PCAF, GCN5, CBP, p300, TIP60alpha), then co-immunoprecipitation; IP buffer 50 mM Tris-HCl pH 7.5, 150 mM NaCl, 10% glycerol, 0.5% NP-40
[4] = molecular target: TPI1, transiently expressed together with the HDAC proteins (Fig. S3B) (UniProt P60174); experiment: co-IP; 11 human HDAC proteins each transiently expressed in combination with TPI1; interaction determined by co-immunoprecipitation

Molecule | binding [1] | binding [2] | binding [3] | binding [4]
E1A binding protein P300 (p300), endogenous (from UniProt Q09472 1-2414) | binds | binds | – | –
E1A binding protein P300 (p300), transfected into 293T cells (Fig. S3A) (from UniProt Q09472 1-2414) | – | – | binds | –
B1 | – | – | – | binds
B2 | binds | binds | – | –

From article PMC12529298
